This assay addresses T1, PD-L2, full-length untagged receptor on cells (UniProt Q9BQ51).
T1 sequence: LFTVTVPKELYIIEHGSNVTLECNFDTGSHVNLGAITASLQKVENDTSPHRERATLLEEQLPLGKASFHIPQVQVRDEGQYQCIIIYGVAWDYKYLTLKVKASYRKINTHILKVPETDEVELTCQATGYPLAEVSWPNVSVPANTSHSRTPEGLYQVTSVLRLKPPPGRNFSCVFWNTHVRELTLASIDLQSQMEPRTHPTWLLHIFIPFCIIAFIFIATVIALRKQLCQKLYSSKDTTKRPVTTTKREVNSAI
Description: fluorescent streptavidin tetramer binding to transfected cells, imaging; only the binder purified.

Protein sequences, listed by entry. Tags and fused reporters are not part of them. Lines headed by an entry give the natural chain unless they say otherwise; changes in a name come on top.
UniProt Q9NZQ7: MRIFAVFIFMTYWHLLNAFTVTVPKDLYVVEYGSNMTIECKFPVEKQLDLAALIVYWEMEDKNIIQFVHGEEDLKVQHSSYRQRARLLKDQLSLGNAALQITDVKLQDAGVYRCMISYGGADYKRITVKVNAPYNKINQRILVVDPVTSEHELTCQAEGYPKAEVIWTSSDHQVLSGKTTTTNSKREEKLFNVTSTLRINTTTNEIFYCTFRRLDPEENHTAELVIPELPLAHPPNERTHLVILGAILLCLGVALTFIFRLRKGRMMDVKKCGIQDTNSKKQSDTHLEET

These are yes or no findings as the source states them, for the method shown. Some results given as binding are weak or reduced against the parent protein; the word gives no strength. Sequences can lack the tags named with a protein.

With “PD-L1 ectodomain, Avi-tagged, biotinylated (from UniProt Q9NZQ7 19-238) (domain or fragment)”, the binding entry is listed as “binds”.

The values above are taken from paper PMC9355963.
